Experimental data as given in article PMC12598007.

Protein sequences, listed by entry. Tags and fused reporters are not part of them. Residues count along the entry.
UniProt Q91VN0, residues 31-1614: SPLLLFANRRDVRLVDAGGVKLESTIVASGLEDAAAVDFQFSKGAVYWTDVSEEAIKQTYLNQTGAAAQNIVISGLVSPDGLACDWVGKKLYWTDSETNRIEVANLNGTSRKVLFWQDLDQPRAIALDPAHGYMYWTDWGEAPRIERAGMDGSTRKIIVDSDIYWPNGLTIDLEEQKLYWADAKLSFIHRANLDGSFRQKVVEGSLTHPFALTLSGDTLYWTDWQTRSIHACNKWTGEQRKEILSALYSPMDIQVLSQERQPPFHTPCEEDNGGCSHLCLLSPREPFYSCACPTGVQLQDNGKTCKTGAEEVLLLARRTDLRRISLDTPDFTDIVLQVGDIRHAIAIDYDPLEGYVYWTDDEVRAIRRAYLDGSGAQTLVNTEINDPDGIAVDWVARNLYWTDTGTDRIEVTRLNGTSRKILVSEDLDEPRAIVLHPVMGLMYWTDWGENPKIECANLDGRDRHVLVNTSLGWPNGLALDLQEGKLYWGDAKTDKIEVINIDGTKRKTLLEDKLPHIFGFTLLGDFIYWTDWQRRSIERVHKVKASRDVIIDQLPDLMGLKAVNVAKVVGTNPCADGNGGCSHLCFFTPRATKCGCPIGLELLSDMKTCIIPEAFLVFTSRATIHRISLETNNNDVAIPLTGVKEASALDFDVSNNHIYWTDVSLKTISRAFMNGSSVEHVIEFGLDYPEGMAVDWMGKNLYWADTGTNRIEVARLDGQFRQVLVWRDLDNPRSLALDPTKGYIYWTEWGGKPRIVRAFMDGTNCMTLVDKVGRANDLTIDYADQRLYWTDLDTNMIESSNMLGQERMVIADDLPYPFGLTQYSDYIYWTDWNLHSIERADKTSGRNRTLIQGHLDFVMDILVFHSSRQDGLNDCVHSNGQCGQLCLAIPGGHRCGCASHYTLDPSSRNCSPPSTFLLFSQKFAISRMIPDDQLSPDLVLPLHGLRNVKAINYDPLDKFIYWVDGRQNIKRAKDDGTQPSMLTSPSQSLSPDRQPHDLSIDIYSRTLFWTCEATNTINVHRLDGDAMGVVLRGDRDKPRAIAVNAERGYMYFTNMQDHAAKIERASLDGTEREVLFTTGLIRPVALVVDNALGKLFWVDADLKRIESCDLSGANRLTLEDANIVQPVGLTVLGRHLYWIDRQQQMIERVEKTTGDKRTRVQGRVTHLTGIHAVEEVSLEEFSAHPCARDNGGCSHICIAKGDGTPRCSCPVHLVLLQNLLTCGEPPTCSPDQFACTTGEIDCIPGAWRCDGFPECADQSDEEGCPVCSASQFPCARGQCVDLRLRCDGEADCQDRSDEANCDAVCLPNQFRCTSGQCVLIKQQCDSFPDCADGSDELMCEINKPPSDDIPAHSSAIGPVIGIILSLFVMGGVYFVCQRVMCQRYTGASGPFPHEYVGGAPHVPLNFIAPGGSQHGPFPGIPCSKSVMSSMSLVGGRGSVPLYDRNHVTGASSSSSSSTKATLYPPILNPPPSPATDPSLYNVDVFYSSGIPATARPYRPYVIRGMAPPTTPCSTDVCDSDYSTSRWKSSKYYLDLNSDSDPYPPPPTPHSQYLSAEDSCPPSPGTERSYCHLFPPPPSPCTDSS

B1: Fbln1 (Fibulin-1) (protein, UniProt Q08879 30-705)
chain: DISMEACCTDGNQMANQHRDCSLPYTSESKECRMVQEQCCHNQLEELHCATGINLASEPEGCASLHSYNSSLETIFIKRCCHCCMLGKASLARDQTCEPIVMISYQCGLVFRACCVKARENSDFVQGNGADLQDPAKIPDEEDQEDPYLNDRCRGGGPCKQQCRDTGDEVICSCFVGYQLQSDGVSCEDINECITGSHNCRLGESCINTVGSFRCQRDSSCGTGYELTEDNNCKDIDECETGIHNCPPDFICQNTLGSFRCRPKLQCKSGFIQDALGNCIDINECLSISAPCPVGQTCINTEGSYTCQKNVPNCGRGYHLNEEGTRCVDVDECSPPAEPCGKGHHCLNSPGSFRCECKAGFYFDGISRTCVDINECQRYPGRLCGHKCENTPGSFHCSCSAGFRLSVDGRSCEDVNECLNSPCSQECANVYGSYQCYCRRGYQLSDVDGVTCEDIDECALPTGGHICSYRCINIPGSFQCSCPSSGYRLAPNGRNCQDIDECVTGIHNCSINETCFNIQGSFRCLSFECPENYRRSADTFRQEKTDTVRCIKSCRPNDEACVRDPVHTVSHTVISLPTFREFTRPEEIIFLRAVTPLYPANQADIIFDITEGNLRDSFDIIKRYEDGMTVGVVRQVRPIVGPFYAVLKLEMNYVLGGVVSHRNVVNVHIFVSEYWF
B2: Fbln2 (protein, UniProt P37889 27-1221)
chain: VPWQDCTGAECPLLENCIEEALEPGACCATCVQQGCACEGYQYYDCVQGGFVDGRVPAGQSYFVDFGSTECSCPPGGGKISCQFMLCPELPPNCIEAVVVADSCPQCGQVGCVHSGRKYAAGHTVHLSSCRACHCPDAGGELICYQLPGCHGNFSDAEEGDSERQYEDPYSYDQEVAEAEATTAIVNEVQAGAEGPPAALGGGNLPPSSIRVTPWPVALPRPTAAAALGPPAPVQAKARRVTLDTEEDEEEEEEETLVTEPPTAGSPGRLDSLPTRSPARPGFPVQEKEAEAKAGPEENLIPDAQVTPRSVMQEGAAPLPRSGLAALSPSLATDSSSEDPVKPSDHPTLSTLPPDRAQVSPSPETPEEIPQHPQLLPRFRAEEDIDPNSVHSVPRGDLDGSTKDLIETCCAAGQQWAIDNDECQEIPENGAQSDICRIAQRQCCISYLKEKSCVAGVMGAKEGETCGAEDNDTCGVSLYKQCCDCCGLGLRVRAEGQSCESNPNLGYPCNHVMLSCCEGEEPLIVPEVRRPPEPEAAPRRVSEMEMASREALSLGTEAELPNSLPGDDQDECLMLPGELCQHLCINTVGSYRCACFPGFELQGDGRTCRPDRGAPQLDTARESAPRSESAQVSPNTIPLPVPQPNTCKDNGPCRQVCRVVGDTAMCSCFPGYAIMADGVSCEDQDECLMGTHDCSWKQFCVNTLGSFYCVNHTVLCAEGYILNAHRKCVDINECVTDLHTCTRAEHCVNTPGSFQCYKALTCEPGYVLTDGECTDVDECVTGTHNCQAGFSCQNTKGSFYCQARQRCMDGFLQDPEGNCVDINECTSLLEPCRSGFSCINTVGSYTCQRNPLVCGRGYHANEEGSECVDVNECETGVHRCGEGQLCYNLPGSYRCDCKPGFQRDAFGRTCIDVNECWVSPGRLCQHTCENTPGSYRCSCAAGFLLAADGKHCEDVNECETRRCSQECANIYGSYQCYCRQGYQLAEDGHTCTDIDECAQGAGILCTFRCVNVPGSYQCACPEQGYTMMANGRSCKDLDECALGTHNCSEAETCHNIQGSFRCLRFDCPPNYVRVSETKCERTTCQDITECQTSPARITHYQLNFQTGLLVPAHIFRIGPAPAFAGDTISLTITKGNEEGYFVTRRLNAYTGVVSLQRSVLEPRDFALDVEMKLWRQGSVTTFLAKMYIFFTTFAP
B3: PTK7 (receptor, UniProt Q8BKG3 23-1062)
chain: AIVFIKEPSSQDALQGRRALLRCEVEAPDPVHVYWLLNGVPVQDTERRFAQGSSLSFAAVDRLQDSGAFQCVARDNVTGEEVRSTNASFNIKWIEAGPVVLKHPASEAEIQPQTQVTLRCHIDGHPRPTYQWFRDGTPLSDDQSTHTVSSRERNLTLRPASPEHSGLYSCCAHNAFGQACSSQNFTLSVADESFARVVLAPQDVVVARNEEAMFHCQFSAQPPPSLQWVFEDETPITNRSRPPHLRRAVVFANGSLLLTQVRPRNAGVYRCIGQGQRGPPIVLEATLHLAEIEDMLPFEPRVFIAGDEERVTCPAPQGLPTPSVWWEHAGVPLPAHGRVHQKGLELVFVTIAESDTGVYTCHASNLAGQRRQDVNITVATVPTWLRKPQDSQLEEGKPGYLHCLTQATPKPTVIWYRNQMLISEDSRFEVSKNGTLRINSVEVYDGTLYRCVSSTPAGSIEAQARVQVLEKLKFTPPPQPQQCMEFDKEATVPCSATGREKPTVKWVRADGSSLPEWVTDNAGTLHFARVTRDDAGNYTCIASNEPQGQIRAHVQLTVAVFITFKVEPERTTVYQGHTALLRCEAQGDPKPLIQWKGKDRILDPTKLGPRMHIFQNGSLVIHDVAPEDSGSYTCIAGNSCNIRHTEAPLLVVDKPVMEDSEGPGSPPPYKMIQTIGLSVGAAVAYIIAVLGLMFYCKKRCKAKRLQKQPEGEEPEMECLNGGPLQNGQPSAEIQEEVALTSLGSGPPATNKRHSAGDRMHFPRASLQPITTLGKSEFGEVFLAKAQGVEEGATETLVLVKSLQSRDEQQQLDFRREVEMFGKLNHANVVRLLGLCREAEPHYMVLEYVDLGDLKQFLRISKNKDEKLKSQPLSTKQKVALCSQVALGMEHLSNNRFVHKDLAARNCLISAQRQVKVSALGLSKDVYNSEYYHFRQAWVPLRWMSPEAVLEGDFSTKSDVWAFGVLMWEVFTHGEMPHGGQADDEVLADLQAGKARLPQPEGCPSKLYRLMQRCWAPNPKDRPSFSEIASTLGDSPADSKQ

Columns and labels:
[1] = target: T1, recombinant human AOC1 protein (diamine oxidase, DAO) (human) (UniProt P19801); experiment: affinity purification with mass spectrometry; C2C12 myoblasts treated with 200 pg/mL recombinant human AOC1 for 24 h, lysed in RIPA buffer with protease inhibitors; total protein incubated with AOC1-specific antibodies overnight at 4 °C, protein G agarose beads; eluate digested with trypsin, LC-MS/MS; only the target purified
T1 sequence: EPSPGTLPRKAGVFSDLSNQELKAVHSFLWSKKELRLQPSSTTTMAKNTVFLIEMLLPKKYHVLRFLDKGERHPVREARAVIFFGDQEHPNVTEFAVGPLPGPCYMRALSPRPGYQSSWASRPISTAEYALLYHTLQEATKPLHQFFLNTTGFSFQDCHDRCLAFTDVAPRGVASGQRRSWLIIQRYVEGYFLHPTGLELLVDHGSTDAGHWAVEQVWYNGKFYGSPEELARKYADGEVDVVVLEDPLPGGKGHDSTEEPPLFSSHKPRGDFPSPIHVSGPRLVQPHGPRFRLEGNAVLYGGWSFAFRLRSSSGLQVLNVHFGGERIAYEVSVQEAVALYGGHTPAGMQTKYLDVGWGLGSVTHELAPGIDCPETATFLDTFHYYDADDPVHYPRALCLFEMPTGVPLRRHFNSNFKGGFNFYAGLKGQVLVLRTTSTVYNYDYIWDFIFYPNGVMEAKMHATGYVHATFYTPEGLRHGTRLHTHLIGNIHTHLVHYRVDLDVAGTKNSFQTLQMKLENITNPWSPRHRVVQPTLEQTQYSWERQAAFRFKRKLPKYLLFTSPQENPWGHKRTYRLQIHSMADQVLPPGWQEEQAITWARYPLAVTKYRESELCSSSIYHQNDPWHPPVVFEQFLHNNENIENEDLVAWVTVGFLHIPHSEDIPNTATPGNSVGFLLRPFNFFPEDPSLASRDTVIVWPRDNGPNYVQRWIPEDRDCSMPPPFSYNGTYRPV

[2] = target: T1, recombinant human AOC1 protein (diamine oxidase, DAO) (human); experiment: as above; remark: listed apart in the source

Row | Molecule | binding [1] | binding [2]
1 | LRP5 (from UniProt Q91VN0 31-1614) (receptor) | binds | –
2 | B1 | – | binds
3 | B2 | – | binds
4 | B3 | – | binds

Read-outs that look alike come from different tables or passages of the source. These are yes or no findings as the source states them, for the method shown. Binding seen in cells or lysates may run through a third protein. Here binding means that the protein was enriched with, or labelled near, the bait; the list need not be complete.
